Measured data: PubChem BioAssay AID686943 (Drosophila RNAi Screening Center, 2013)

- Aim: 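Fly genes whose loss alters ERK activation after insulin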 (primary screen)
- Cells: Drosophila S2R+ haemocyte-like cells expressing YFP-tagged ERK (Rolled)
- Knock-down reagent: long dsRNA against Drosophila genes
- Treatment: insulin stimulation versus unstimulated cells; dose and duration not given
- Measured: 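Antibody staining for doubly phosphorylated ERK divided by ERK-YFP signal, as plate z-scores, in insulin-treated and untreated cells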
- Reading the numbers: replicate 1, z-score of dpERK with insulin: higher = more active ERK per ERK-YFP after insulin
The deposit covers about 23,000 reagents; shown is a random part of those with a known target gene and a result. 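Extra replicates exist only for a retested subset of genes; insulin dose and duration not given; both raised and lowered dpERK matter.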 A plus sign joins genes that one reagent is predicted to hit. Further read-outs or replicates are left out here. The record does not give: the amount of reagent, the time to read-out.

What did the screen give for hui [DRSC05977]?
replicate 1, z-score of dpERK with insulin: 0.96

What did the screen give for CG15878 [DRSC08486]?
replicate 1, z-score of dpERK with insulin: -0.09

For CG7218 [DRSC16216], what does the deposit list?
replicate 1, z-score of dpERK with insulin: 0.62

Which result is listed for CG33639 [DRSC19966]?
replicate 1, z-score of dpERK with insulin: 0.6

What is on record for CG33639 [DRSC22820]?
replicate 1, z-score of dpERK with insulin: 1.62

What is on record for CG14963 [DRSC08422]?
replicate 1, z-score of dpERK with insulin: 0.19

For st [DRSC11399], how do the results read?
replicate 1, z-score of dpERK with insulin: -1.49

What is on record for Cap-H2 [DRSC14908]?
replicate 1, z-score of dpERK with insulin: -0.12

With Dhc16F [DRSC20242], what does the deposit list?
replicate 1, z-score of dpERK with insulin: 0.99

What did the screen give for CG8490 [DRSC07194]?
replicate 1, z-score of dpERK with insulin: 0.1

For CG43133 [DRSC19231], what does the deposit list?
replicate 1, z-score of dpERK with insulin: 0.16

What did the screen give for Ugt49B2 [DRSC16049]?
replicate 1, z-score of dpERK with insulin: -0.35

How did the screen score Stam [DRSC03444]?
replicate 1, z-score of dpERK with insulin: 1.14

What is on record for CG17440 [DRSC18126]?
replicate 1, z-score of dpERK with insulin: 0.2

What is on record for Exo84 [DRSC15965]?
replicate 1, z-score of dpERK with insulin: -0.75

What did the screen give for obst-A [DRSC20543]?
replicate 1, z-score of dpERK with insulin: 0.55

What is on record for CG30043 [DRSC06285]?
replicate 1, z-score of dpERK with insulin: -0.04

For CG3732 [DRSC04410], what was measured?
replicate 1, z-score of dpERK with insulin: -0.95

How did the screen score sturkopf [DRSC08637]?
replicate 1, z-score of dpERK with insulin: 0.22

For CG5704 [DRSC08572], what was measured?
replicate 1, z-score of dpERK with insulin: 0.39

With CG12106 [DRSC17805], what was measured?
replicate 1, z-score of dpERK with insulin: 0.63

What is on record for spg [DRSC14373]?
replicate 1, z-score of dpERK with insulin: -0.11

With spg [DRSC14881], what was measured?
replicate 1, z-score of dpERK with insulin: -0.38

With CG17140 + CG17139 [DRSC02585], what was measured?
replicate 1, z-score of dpERK with insulin: 0.27

With CG17140 + CG17139 [DRSC02586], what was measured?
replicate 1, z-score of dpERK with insulin: 0.04

How did the screen score CheB53a [DRSC06625]?
replicate 1, z-score of dpERK with insulin: 0.07

With Peritrophin-15b [DRSC02266], what was measured?
replicate 1, z-score of dpERK with insulin: 0.41

For dmrt11E [DRSC19715], how do the results read?
replicate 1, z-score of dpERK with insulin: 1.13

For CG34345 [DRSC02126], how do the results read?
replicate 1, z-score of dpERK with insulin: 0.75

Which result is listed for CG9799 [DRSC16567]?
replicate 1, z-score of dpERK with insulin: 0.78

How did the screen score CG30385 [DRSC06031]?
replicate 1, z-score of dpERK with insulin: 1.77

Reprinted from the entries so far, 4 entries:
CG17140 + CG17139 [DRSC02586] | replicate 1, z-score of dpERK with insulin = 0.04
CheB53a [DRSC06625] | replicate 1, z-score of dpERK with insulin = 0.07
Peritrophin-15b [DRSC02266] | replicate 1, z-score of dpERK with insulin = 0.41
dmrt11E [DRSC19715] | replicate 1, z-score of dpERK with insulin = 1.13
